For assay [1], the target named is BMP7Flag (knock-in allele Bmp7^Flag) (mouse) (UniProt P23359). The experiment in a line: co-IP; 1 mg E11.5 mouse embryo lysate in IP lysis buffer (150 mM NaCl, 20 mM Tris-Cl pH 7.5, 1 mM EDTA, 1% sodium deoxycholate, 1% NP40); anti-Flag agarose overnight at 4°C; immunoblot for BMP4; wild type littermates as control.
The target in assay [2] is BMP7R-GFlag precursor protein (knock-in allele Bmp7^R-GFlag) (mouse). The assay is described as above.

Sequences of proteins named here, by UniProt entry; tags and fusion partners are left off. A change or cut given only in a name is not applied to a line headed by its entry.
UniProt P23359: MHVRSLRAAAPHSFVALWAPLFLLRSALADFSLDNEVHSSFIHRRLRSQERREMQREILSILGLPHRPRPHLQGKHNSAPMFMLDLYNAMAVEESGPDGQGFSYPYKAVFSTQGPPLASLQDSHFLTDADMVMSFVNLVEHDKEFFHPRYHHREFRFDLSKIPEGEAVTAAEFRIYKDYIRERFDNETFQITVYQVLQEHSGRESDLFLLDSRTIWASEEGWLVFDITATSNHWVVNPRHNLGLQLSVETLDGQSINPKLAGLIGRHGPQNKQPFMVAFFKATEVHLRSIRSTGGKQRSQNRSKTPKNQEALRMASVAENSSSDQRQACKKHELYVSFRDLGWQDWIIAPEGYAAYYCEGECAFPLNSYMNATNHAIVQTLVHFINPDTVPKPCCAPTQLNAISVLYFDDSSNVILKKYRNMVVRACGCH

This passage reports binding results from paper PMC6785266.

Results are given in words; binding and its absence hold for the method and conditions named. In cells and extracts the contact can be indirect. Binding calls can cover weak binding; strength is not graded here.

B1: cleaved mature BMP4 ligand (endogenous) (ligand, UniProt P21275 293-408)
chain: SPKHHPQRSRKKNKNCRRHSLYVDFSDVGWNDWIVAPPGYQAFYCHGDCPFPLADHLNSTNHAIVQTLVNSVNSSIPKACCVPTELSAISMLYLDEYDKVVLKNYQEMVVEGCGCR
Take B1: the binding entry in assay [1] and in assay [2] was “binds” throughout.
